# The other results are listed elsewhere or left out.
# How the values were obtained:
# Test in all cases: glycan array binding signal (z-score within array); higher = stronger binding
# Details in all cases: glycan notation: IUPAC condensed, linker removed
# [1] = molecular target: Man(a1-3)[Man(a1-6)]Man(a1-6)[Man(a1-3)]Man
# How it was run: (§1)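 Negative Z-scores can be read as non-binding. The Z-score is calculated within each array and then averaged across arrays of one protein sequence at different concentrations or buffers and across linkers. Arrays, 3228 in all, were curated from the Consortium for Functional Glycomics database and kept only where the protein sequence was available.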
# [2] = molecular target: Man(a1-3)[Man(a1-6)]Man(a1-6)[Man(a1-3)]Man(b1-4)GlcNAc(b1-4)GlcNAc
# How it was run: as §1
# [3] = molecular target: Man(a1-3)[Man(a1-6)]Man(b1-4)GlcNAc(b1-4)GlcNAc
# How it was run: as §1
# [4] = molecular target: Man(a1-3)[Man(a1-6)]Man(b1-4)GlcNAc(b1-4)[Fuc(a1-6)]GlcNAc
# How it was run: as §1
# Man(a1-6)Man = molecular target: Man(a1-6)Man
# How it was run: as §1
# Man(b1-4)GlcNAc = molecular target: Man(b1-4)GlcNAc
# How it was run: as §1
# MurNAc(b1-4)GlcNAc = molecular target: MurNAc(b1-4)GlcNAc
# How it was run: as §1
# Neu5Ac(a2-3)Gal = molecular target: Neu5Ac(a2-3)Gal
# How it was run: as §1
# [5] = molecular target: Neu5Ac(a2-3)Gal(b1-3)GalNAc
# How it was run: as §1
# [6] = molecular target: Neu5Ac(a2-3)Gal(b1-3)GalNAc(b1-3)Gal(a1-4)Gal(b1-4)Glc
# How it was run: as §1
# [7] = molecular target: Neu5Ac(a2-3)Gal(b1-3)GalNAc(b1-4)[Neu5Ac(a2-3)]Gal(b1-4)Glc
# How it was run: as §1
# [8] = molecular target: Neu5Ac(a2-3)Gal(b1-3)GalNAc(b1-4)[Neu5Ac(a2-8)Neu5Ac(a2-3)]Gal(b1-4)Glc
# How it was run: as §1
# [9] = molecular target: Neu5Ac(a2-3)Gal(b1-3)GalNAc6S
# How it was run: as §1
# [10] = molecular target: Neu5Ac(a2-3)Gal(b1-3)GlcNAc
# How it was run: as §1
# [11] = molecular target: Neu5Ac(a2-3)Gal(b1-3)GlcNAc(b1-2)Man
# How it was run: as §1
# [12] = molecular target: Neu5Ac(a2-3)Gal(b1-3)GlcNAc(b1-2)Man(a1-3)[GlcNAc(b1-4)][Neu5Ac(a2-3)Gal(b1-3)GlcNAc(b1-2)Man(a1-6)]Man(b1-4)GlcNAc(b1-4)GlcNAc
# How it was run: as §1
# [13] = molecular target: Neu5Ac(a2-3)Gal(b1-3)GlcNAc(b1-2)Man(a1-3)[Neu5Ac(a2-3)Gal(b1-3)GlcNAc(b1-2)Man(a1-6)]Man(b1-4)GlcNAc(b1-4)GlcNAc
# How it was run: as §1
# [14] = molecular target: Neu5Ac(a2-3)Gal(b1-3)GlcNAc(b1-3)Gal(b1-3)GlcNAc
# How it was run: as §1
# [15] = molecular target: Neu5Ac(a2-3)Gal(b1-3)GlcNAc(b1-3)Gal(b1-4)GlcNAc
# How it was run: as §1
# [16] = molecular target: Neu5Ac(a2-3)Gal(b1-3)GlcNAc(b1-3)GalNAc
# How it was run: as §1
# [17] = molecular target: Neu5Ac(a2-3)Gal(b1-3)GlcNAc(b1-4)Gal(b1-4)Glc
# How it was run: as §1
# [18] = molecular target: Neu5Ac(a2-3)Gal(b1-3)GlcNAc(b1-6)GalNAc
# How it was run: as §1
# [19] = molecular target: Neu5Ac(a2-3)Gal(b1-3)GlcNAc6S
# How it was run: as §1
# [20] = molecular target: Neu5Ac(a2-3)Gal(b1-3)[Fuc(a1-4)]GlcNAc
# How it was run: as §1
# [21] = molecular target: Neu5Ac(a2-3)Gal(b1-3)[Fuc(a1-4)]GlcNAc(b1-3)Gal(b1-3)[Fuc(a1-4)]GlcNAc
# How it was run: as §1
# [22] = molecular target: Neu5Ac(a2-3)Gal(b1-3)[Fuc(a1-4)]GlcNAc(b1-3)Gal(b1-4)[Fuc(a1-3)]GlcNAc
# How it was run: as §1
# [23] = molecular target: Neu5Ac(a2-3)Gal(b1-3)[GlcNAc(b1-6)]GalNAc
# How it was run: as §1
# [24] = molecular target: Neu5Ac(a2-3)Gal(b1-3)[Neu5Ac(a2-6)]GalNAc
# How it was run: as §1
# [25] = molecular target: Neu5Ac(a2-3)Gal(b1-3)[Neu5Ac(a2-6)]GlcNAc(b1-3)[Fuc(a1-3)[Gal(b1-4)]GlcNAc(b1-6)]Gal(b1-4)Glc
# How it was run: as §1
# [26] = molecular target: Neu5Ac(a2-3)Gal(b1-3)]Neu5Ac(a2-3)Gal(b1-4)]GlcNAc
# How it was run: as §1
# Neu5Ac(a2-3)Gal(b1-4)Glc = molecular target: Neu5Ac(a2-3)Gal(b1-4)Glc
# How it was run: as §1
# [27] = molecular target: Neu5Ac(a2-3)Gal(b1-4)GlcNAc
# How it was run: as §1
# [28] = molecular target: Neu5Ac(a2-3)Gal(b1-4)GlcNAc(b1-2)Man
# How it was run: as §1
# [29] = molecular target: Neu5Ac(a2-3)Gal(b1-4)GlcNAc(b1-2)Man(a1-3)[GlcNAc(b1-4)][Neu5Ac(a2-3)Gal(b1-4)GlcNAc(b1-2)Man(a1-6)]Man(b1-4)GlcNAc(b1-4)GlcNAc
# How it was run: as §1
# [30] = molecular target: Neu5Ac(a2-3)Gal(b1-4)GlcNAc(b1-2)Man(a1-3)[Neu5Ac(a2-3)Gal(b1-4)GlcNAc(b1-2)Man(a1-6)]Man(b1-4)GlcNAc(b1-4)GlcNAc
# How it was run: as §1
# [31] = molecular target: Neu5Ac(a2-3)Gal(b1-4)GlcNAc(b1-2)Man(a1-3)[Neu5Ac(a2-3)Gal(b1-4)GlcNAc(b1-2)Man(a1-6)]Man(b1-4)GlcNAc(b1-4)[Fuc(a1-6)]GlcNAc
# How it was run: as §1
# [32] = molecular target: Neu5Ac(a2-3)Gal(b1-4)GlcNAc(b1-2)Man(a1-3)[Neu5Ac(a2-6)Gal(b1-4)GlcNAc(b1-2)Man(a1-6)]Man(b1-4)GlcNAc(b1-4)GlcNAc
# How it was run: as §1
# [33] = molecular target: Neu5Ac(a2-3)Gal(b1-4)GlcNAc(b1-2)[Neu5Ac(a2-3)Gal(b1-4)GlcNAc(b1-4)]Man(a1-3)[GlcNAc(b1-4)][Neu5Ac(a2-3)Gal(b1-4)GlcNAc(b1-2)[Neu5Ac(a2-3)Gal(b1-4)GlcNAc(b1-6)]Man(a1-6)]Man(b1-4)GlcNAc(b1-4)GlcNAc
# How it was run: as §1
binder,measurement,setting,value
Sp8391B-bot-388-20-388 (Bacteroides ovatus) (protein) GCQNNDENEQHYDNKLFISASNFTKEILFKAGDTNVETGLSVAIAKPEEHDIKVTMSPAPELLSTYKLAYYDETAVLLSEEHYSMPETSTTIKSGSIVSPELPIEFINTGELDIKTTYVLPVTIKSVEGIGVLQSAKTYYYVFRGASLINVVCNISRNRAYPDFKNDSKFNNLTENTMEILFKANSFPNTLNTLMGIESNYLLRIGDATIPNNQLQVATSVNNCTSADLQLESGKWYHVAVAFNKGNVKVYINGVEKLSGSTGKSSVSLGAKHTNEEDGSRCFWVGYSYKDDRYFDGVVSEVRIWNRALTAEEIQATNHFYTIEPESEGLIAYWKFDEGSGTVAKDYSVSGYDLTIEKEPKWESVSLPQ,glycan array binding signal (z-score),[1],0.661
same,glycan array binding signal (z-score),[2],0.933
same,glycan array binding signal (z-score),[3],-0.057
same,glycan array binding signal (z-score),[4],-0.197
same,glycan array binding signal (z-score),Man(a1-6)Man,-0.352
same,glycan array binding signal (z-score),Man(b1-4)GlcNAc,1.19
same,glycan array binding signal (z-score),MurNAc(b1-4)GlcNAc,-0.265
same,glycan array binding signal (z-score),Neu5Ac(a2-3)Gal,-0.059
same,glycan array binding signal (z-score),[5],-0.722
same,glycan array binding signal (z-score),[6],-0.286
same,glycan array binding signal (z-score),[7],-0.636
same,glycan array binding signal (z-score),[8],-0.412
same,glycan array binding signal (z-score),[9],-0.665
same,glycan array binding signal (z-score),[10],-0.213
same,glycan array binding signal (z-score),[11],-0.633
same,glycan array binding signal (z-score),[12],-0.652
same,glycan array binding signal (z-score),[13],-0.686
same,glycan array binding signal (z-score),[14],-0.939
same,glycan array binding signal (z-score),[15],0.081
same,glycan array binding signal (z-score),[16],0.193
same,glycan array binding signal (z-score),[17],-0.577
same,glycan array binding signal (z-score),[18],-0.896
same,glycan array binding signal (z-score),[19],1.4
same,glycan array binding signal (z-score),[20],0.453
same,glycan array binding signal (z-score),[21],0.339
same,glycan array binding signal (z-score),[22],-0.611
same,glycan array binding signal (z-score),[23],-0.315
same,glycan array binding signal (z-score),[24],-0.652
same,glycan array binding signal (z-score),[25],-1.12
same,glycan array binding signal (z-score),[26],-0.275
same,glycan array binding signal (z-score),Neu5Ac(a2-3)Gal(b1-4)Glc,-0.356
same,glycan array binding signal (z-score),[27],-0.47
same,glycan array binding signal (z-score),[28],-0.285
same,glycan array binding signal (z-score),[29],-0.384
same,glycan array binding signal (z-score),[30],-0.533
same,glycan array binding signal (z-score),[31],-0.812
same,glycan array binding signal (z-score),[32],-0.28
same,glycan array binding signal (z-score),[33],-0.47

# Fetched one by one from above:
binder,measurement,setting,value
Sp8391B-bot-388-20-388 (Bacteroides ovatus) (protein) GCQNNDENEQHYDNKLFISASNFTKEILFKAGDTNVETGLSVAIAKPEEHDIKVTMSPAPELLSTYKLAYYDETAVLLSEEHYSMPETSTTIKSGSIVSPELPIEFINTGELDIKTTYVLPVTIKSVEGIGVLQSAKTYYYVFRGASLINVVCNISRNRAYPDFKNDSKFNNLTENTMEILFKANSFPNTLNTLMGIESNYLLRIGDATIPNNQLQVATSVNNCTSADLQLESGKWYHVAVAFNKGNVKVYINGVEKLSGSTGKSSVSLGAKHTNEEDGSRCFWVGYSYKDDRYFDGVVSEVRIWNRALTAEEIQATNHFYTIEPESEGLIAYWKFDEGSGTVAKDYSVSGYDLTIEKEPKWESVSLPQ,glycan array binding signal (z-score),[29],-0.384
same,glycan array binding signal (z-score),[10],-0.213
